# In the supplement of paper PMC8007513:
# This is one part of the list. Many values rest on one well or one pass, so single values are uncertain.
# Test system: Saccharomyces cerevisiae BY4743
# Experiment: growth (OD600) with compound + IPBC relative to untreated control; higher = less growth inhibition
# Conditions: compound concentration: 133 uM; IPBC concentration: 0.5 ug/ml; 20 h
# Protocol: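 NMCCC compounds (133 uM) combined with IPBC (0.5 ug/ml) against Saccharomyces cerevisiae BY4743 in YPD, 96-well plates. Growth was read as OD600 at 20 h and expressed as % of the untreated control. Single pass.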
row,Compound,growth
1,O=C(COC(=O)CCC(=O)c1ccc2c(c1)OCCO2)Nc1ccc(Cl)cc1C(F)(F)F + CCCCNC(=O)OCC#CI [3-iodo-2-propynyl butylcarbamate (IPBC)],112%
2,CCCNC(=O)CN(C)C(=O)c1ccc(-c2cc(Cl)ccc2Cl)o1 + CCCCNC(=O)OCC#CI [3-iodo-2-propynyl butylcarbamate (IPBC)],73.3%
3,CCOC(=O)c1cnc(SCc2nc(-c3ccccc3)oc2C)nc1N + CCCCNC(=O)OCC#CI [3-iodo-2-propynyl butylcarbamate (IPBC)],82.6%
4,CN(CCOC1=CC=C(F)C=C1)CC/2=C/C(=O)N/3\C=C/C=C\C3=N2 + CCCCNC(=O)OCC#CI [3-iodo-2-propynyl butylcarbamate (IPBC)],99%
5,Cc1cc(NS(=O)(=O)c2c(C)nn(C)c2Cl)ccc1N1CCCC1=O + CCCCNC(=O)OCC#CI [3-iodo-2-propynyl butylcarbamate (IPBC)],109%
6,Cc1cnc(NC(=O)CN2CSCC2=O)s1 + CCCCNC(=O)OCC#CI [3-iodo-2-propynyl butylcarbamate (IPBC)],89.5%
7,COC(=O)c1cccc2c1CCCN2Cc1ncc(C(C)(C)C)o1 + CCCCNC(=O)OCC#CI [3-iodo-2-propynyl butylcarbamate (IPBC)],98.6%
8,CCCOc1c(Br)cc(C(=O)OCC(=O)N(C)C2CCS(=O)(=O)C2)cc1OC (stereo not drawn) + CCCCNC(=O)OCC#CI [3-iodo-2-propynyl butylcarbamate (IPBC)],97.3%

# In a second layout: entries from further up.
row	Compound	growth
5	Cc1cc(NS(=O)(=O)c2c(C)nn(C)c2Cl)ccc1N1CCCC1=O + CCCCNC(=O)OCC#CI [3-iodo-2-propynyl butylcarbamate (IPBC)]	109%
8	CCCOc1c(Br)cc(C(=O)OCC(=O)N(C)C2CCS(=O)(=O)C2)cc1OC (stereo not drawn) + CCCCNC(=O)OCC#CI [3-iodo-2-propynyl butylcarbamate (IPBC)]	97.3%
